At least one structure is not confirmed: it was looked up by name or label, or the drawing left a doubt.
Tested on: APC^min mouse model
Test: APC^min mouse model of colorectal cancer development (chow supplemented with compound)
Format: in vivo, mice
Settings: at thirteen weeks of age
Description: An APC^min mouse model was used to test the ability of 4-(4′-hydroxyphenyl)-amino-6,7-dimethoxyquinazoline to prevent the development of colorectal cancer. A total of 23 APC^min mice were fed rodent chow, which was supplemented with 0.3 wt % 4-(4′-hydroxyphenyl)-amino-6,7-dimethoxyquinazoline once a week starting at six weeks of age. A control group of 30 mice were fed rodent chow without 4-(4′-hydroxyphenyl)-amino-6,7-dimethoxyquinazoline. The health status of the mice was monitored for thirty weeks. Table 1 below describes the Probability of Survival for each group of mice over a period of 210 days.

COc1cc2ncnc(Nc3ccc(O)cc3)c2cc1OC [4-(4′-hydroxyphenyl)-amino-6,7-dimethoxyquinazoline]
mice that developed rectal bleeding (treated mice (26% of the control mice)): none
mice with detectable polyps in the intestines (treated mice (60% of the control mice)): none

Reference: US20020183340A1, “4-(4'-HYDROXYPHENYL) AMINO-6,7-DIMETHOXYQUINAZOLINE TO PREVENT DEVELOPMENT OF COLORECTAL CANCER” (Parker Hughes Institute, priority 1999, published 2002)
